In patent US20040229213A1 (INSTITUT PASTEUR, published 2004):
Results are given in words; binding and its absence hold for the method and conditions named. Some results given as binding are weak or reduced against the parent protein; the word gives no strength.

Sequences of proteins named here, by UniProt entry; tags and fusion partners are left off. Residues count along the entry.
HCV NS3 (strain H) (P27958, residues 1027-1657): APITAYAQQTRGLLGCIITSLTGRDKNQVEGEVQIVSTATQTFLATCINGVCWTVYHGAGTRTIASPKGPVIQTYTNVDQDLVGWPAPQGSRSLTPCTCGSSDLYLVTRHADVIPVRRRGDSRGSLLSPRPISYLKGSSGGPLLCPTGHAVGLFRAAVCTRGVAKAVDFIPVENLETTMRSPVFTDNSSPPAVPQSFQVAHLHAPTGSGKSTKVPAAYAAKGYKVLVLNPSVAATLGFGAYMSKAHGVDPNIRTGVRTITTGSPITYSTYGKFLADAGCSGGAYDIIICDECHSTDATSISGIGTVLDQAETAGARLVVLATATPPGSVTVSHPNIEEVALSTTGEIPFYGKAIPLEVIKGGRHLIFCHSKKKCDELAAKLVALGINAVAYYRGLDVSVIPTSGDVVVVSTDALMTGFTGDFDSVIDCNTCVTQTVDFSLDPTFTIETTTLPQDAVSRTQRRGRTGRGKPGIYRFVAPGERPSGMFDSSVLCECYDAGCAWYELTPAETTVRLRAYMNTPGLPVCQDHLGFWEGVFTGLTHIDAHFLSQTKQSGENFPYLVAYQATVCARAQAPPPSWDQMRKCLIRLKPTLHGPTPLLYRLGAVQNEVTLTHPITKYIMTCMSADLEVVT
HCV NS4a, full length (strain H) (P27958, residues 1658-1711): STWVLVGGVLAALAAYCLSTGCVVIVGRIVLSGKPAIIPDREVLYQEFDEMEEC
HCV NS4b (strain H) (P27958, residues 1712-1972): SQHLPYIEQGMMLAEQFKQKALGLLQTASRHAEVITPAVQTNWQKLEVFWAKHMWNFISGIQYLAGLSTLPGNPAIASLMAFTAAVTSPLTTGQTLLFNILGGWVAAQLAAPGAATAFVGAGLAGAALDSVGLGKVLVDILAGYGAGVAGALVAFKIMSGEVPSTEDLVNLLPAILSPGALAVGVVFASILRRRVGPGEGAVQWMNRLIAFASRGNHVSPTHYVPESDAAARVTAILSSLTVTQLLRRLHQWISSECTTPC

Columns and labels:
[1] = biological target: HCV NS4a, full length (strain H) (hepatitis C virus strain H) (UniProt P27958); assay: yeast two-hybrid matrix of selected preys against HCV baits
[2] = biological target: HCV NS4b (strain H) (hepatitis C virus strain H) (UniProt P27958); assay: as above

HCV NS3 (strain H) (from UniProt P27958 1027-1657) (enzyme)
binding [1]: binds

HCV NS4a, full length (strain H) (from UniProt P27958 1658-1711)
binding [2]: binds
